In all, about 1,200 compounds went through this assay and fewer than 10 were called active. Calls come from the whole dose curve; as a rule, active = well fitted curve in the direction sought with a large enough effect; inconclusive = small, poorly fitted or top-dose-only effect, or another doubt; inactive = no such curve, though single readings can be large or run the other way. The list shows a part of the results.

Amino acid sequences for entries named in this document (tags omitted). A change or cut given only in a name is not applied to a line headed by its entry.
UniProt P11308: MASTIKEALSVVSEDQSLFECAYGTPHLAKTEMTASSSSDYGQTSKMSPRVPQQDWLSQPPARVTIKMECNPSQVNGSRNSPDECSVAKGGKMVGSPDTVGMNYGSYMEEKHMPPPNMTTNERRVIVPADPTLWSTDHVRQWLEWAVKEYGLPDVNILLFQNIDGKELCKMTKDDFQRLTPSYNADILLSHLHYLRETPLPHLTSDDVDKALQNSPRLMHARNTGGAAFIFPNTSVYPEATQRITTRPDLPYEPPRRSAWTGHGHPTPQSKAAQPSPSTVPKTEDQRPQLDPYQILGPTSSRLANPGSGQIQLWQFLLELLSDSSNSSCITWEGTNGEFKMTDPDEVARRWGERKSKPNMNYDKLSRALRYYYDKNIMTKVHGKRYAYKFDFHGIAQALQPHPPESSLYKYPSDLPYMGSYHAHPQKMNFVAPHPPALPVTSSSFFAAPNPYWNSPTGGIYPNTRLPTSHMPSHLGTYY

This assay has as its target Transcriptional regulator ERG (Homo sapiens) (UniProt P11308). Description: qHTS for Small Molecule Inhibitors of the ERG Ets/DNA interaction: TR assay against cherry picks. Note: % of control where 0% means no effect. The following applies: ERG Ets domain-DNA fluorescence polarization, Texas red probe; at 154 µM (top of the series). In outline: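 Polarization read sequentially for fluorescein (ex 480/em 535 nm) and Texas red (ex 555/em 632 nm) probes, 5 nM and 100 nM solutions, displaced from His-ERG Ets domain (1 uM solution), pH 7.5 Tris/KCl/EDTA/DTT buffer.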
For `CC(=O)NC(CC(=O)Nc1nc(-c2ccccc2)c(C(C)=O)s1)c1ccccc1` (stereo not given), the activity change, negative = inhibition was inactive: 0.138%. With `Cc1ccc(C)c(NC(=O)COC(=O)c2cc(=O)c3ccccc3o2)c1` the figure was inactive: 3.93%. The value for `CN(C)S(=O)(=O)c1ccc(C(=O)Nc2ccc(Cl)cc2)cc1` was inactive: 9.06%; that for `Cc1ccc(-c2nnn(CC(=O)N(c3ccccc3)C(C(=O)NCC3CCCO3)c3ccc(F)cc3)n2)o1` (stereo not given) was inactive: -5.14%. In the case of `Cc1cc(-c2n[nH]c(=S)n2-c2ccc(C)c(C)c2)no1`, the activity change, negative = inhibition was inactive: 2.56%. The value for `CNC(=S)N/N=C/c1c(C)nn(-c2ccccc2)c1Cl` was inactive: -6.58%; that for `CCOC(=O)N1CCC(NC(=O)c2ccc(CO)c(C(=O)NC3CCN(C(=O)OCC)CC3)c2)CC1` was inactive: -1.53%. For the molecule `Cn1ncc(Cl)c1C(=O)N1CCN(C23CC4CC(CC(C4)C2)C3)CC1`, the activity change, negative = inhibition was inactive: -12.6%.

As to `c1ccc2sc(NN=C3CCCCCC3)nc2c1`, the activity change, negative = inhibition is inactive: 0.486%. The value for `c1ccc(SSc2ccccc2)cc1` was inactive: 5.81%; that for `COc1ccc(-c2cc3ncc(C(C)=O)c(C)n3n2)cc1` was inactive: 3.21%. With `OC(CN1CCCCC1)Cn1c2ccccc2c2cc(Br)ccc21` (stereo not given) the figure was inactive: -14.6%. As to `CCCNc1ncnc2c1cnn2C1CCCCO1` (stereo not given), the activity change, negative = inhibition was inactive: 0.107%. With `Nc1ccc2nc3c(=O)n(CCc4ccccc4)c(=O)[nH]c3nc2c1` the figure was inactive: 38.9%; with `CCNC(=O)COc1ccc(/C=N/NC(=O)c2cccnc2)cc1OC`, inactive: -1.35%. The value for `CN(C)S(=O)(=O)c1ccc(C(=O)OCC(=O)NC(=O)NC2CCCC2)cc1` was inactive: 0.67%; that for `CC1=Nc2ccccc2/C1=C/c1nc(-c2ccc(C)s2)oc1O` was inactive: 8.96%; that for `COC(=O)[C@H](Cc1ccccc1)NC(=O)C1(OC(C)=O)CC(OC(C)=O)C(OC(C)=O)C(OC(C)=O)C1` (stereo not given in full) was inactive: -0.524%. With `COc1ccc(-c2ccc(SCC(=O)NCC3CCCO3)nn2)cc1OC` (stereo not given) the figure was inactive: 5.17%; with `COC(=O)C(C)Sc1ccc2nnc(CCNS(=O)(=O)c3ccc(C)cc3)n2n1` (stereo not given), inactive: 4.39%; with `NC(=S)c1cc2ccc(O)cc2oc1=O`, inactive: 119%.

Consider `CN(C(=O)c1ccncc1)C1CCS(=O)(=O)C1` (stereo not given), for which the activity change, negative = inhibition is inactive: 3.35%. The value for `COc1ccc(C)cc1S(=O)(=O)Nc1cccc(C)c1` was inactive: 5.01%; that for `CCOC(=O)c1c(NC(=O)CSc2nnc(-c3ccc(Cl)cc3)o2)sc2c1CCC2` was inactive: 16.4%. With `COc1ccc(-c2nc3n(n2)C(c2ccccc2OC)C(C(=O)Nc2cccnc2)=C(C)N3)cc1` (stereo not given) the figure was inactive: -20.2%; with `Cc1csc(NC(=O)CSc2nnc(NC(=O)COc3ccc(Cl)cc3)s2)n1`, inactive: 0.404%. With `O=C(COc1ccccc1Cl)Nc1ccc(CN2CCCCC2)cc1` the figure was inactive: 1.34%.

Turning to `CN(C)C(CNC(=O)/C=C/c1cccc(Cl)c1)c1ccccc1` (stereo not given), the activity change, negative = inhibition is inactive: -4.23%. As to `COc1cccc(-c2nnc(NC(=O)C(C)C)o2)c1`, the activity change, negative = inhibition was inactive: 2.58%. With `Cc1ccccc1C(=O)NCCCc1ccccc1` the figure was inactive: 2.66%; with `O=C(CNC(=O)c1ccccc1Cl)OCC(=O)N1CCc2ccccc21`, inactive: 1.84%; with `CC1CCN(C(=O)COC(=O)c2ccc(=O)n(Cc3ccccc3)n2)CC1`, inactive: 8.59%.

`CC1=CC(=O)C(C(C)C)=C/C1=C(\c1cc(C(C)C)c(OP(=O)(O)O)cc1C)c1ccccc1C(=O)O`: the activity change, negative = inhibition is inactive: -2.93%. With `COc1ccc(CCC(=O)NNC(=O)c2cc(Cl)ccc2OC)cc1`, the activity change, negative = inhibition is inactive: -11.6%. The value for `COc1ccc(NC(=O)COC(=O)C2C3CC4OC(=O)C2C4C3)cc1` (stereo not given) was inactive: 6.29%; that for `Cc1ccc(CNC(=O)Cn2c(=O)n(Cc3ccc(F)cc3)c(=O)c3sc4ccccc4c32)cc1` was inactive: 3.27%. The value for `O=S(=O)(Nc1cccc(S(=O)(=O)N2CCCCC2)c1)c1ccc(Cl)s1` was inactive: -15%; that for `CC(=O)Nc1cccc(NC(=O)c2ccccc2OCc2c(C)noc2C)c1` was inactive: -16.3%; that for `CCN1CCN(C(=O)Cn2ncc3ccsc3c2=O)CC1` was inactive: 7%. With `O=C(NC1CCCCCCC1)c1ccc(F)c(S(=O)(=O)N2CCOCC2)c1` the figure was inactive: -7%; with `C=CCn1cccc(C(=O)Nc2cc(OC)c(OC)c(OC)c2)c1=O`, inactive: 0.601%. With `CCOc1cc(CNc2cccc3[nH]c(C)nc23)ccc1OC`, the activity change, negative = inhibition was inactive: 3.22%.

On to `COc1ccc(CNC(=O)c2sc(=S)n(-c3ccccc3)c2N)cc1`, for which the activity change, negative = inhibition is inactive: 10.8%. Consider `CC(C)N(C(=O)Cn1cc(S(=O)(=O)CC(=O)N2CCOCC2)c2ccccc21)C(C)C`, for which the activity change, negative = inhibition was inactive: -5.17%. The value for `N/C(=N\c1nc2ccccc2o1)NC(=O)c1cccc(Br)c1` was inactive: 1.54%; that for `COc1cc(NC(=O)CCCNC(=O)c2ccc(Cl)cc2)cc(OC)c1` was inactive: -10.9%; that for `N#Cc1c(SCc2c(Cl)cccc2Cl)nc(N)[nH]c1=S` was inactive: 1.43%. With `Cc1ccc(-n2c(Cc3noc4ccccc34)n[nH]c2=S)cc1` the figure was inactive: -1.53%. As for `Cc1ccc(-c2noc(C3CCCN(C(=O)c4cccc([N+](=O)[O-])c4)C3)n2)o1` (stereo not given), the activity change, negative = inhibition is inactive: 0.0783%. On to `CSc1ccccc1NC(=O)CN(C)C(=O)/C=C/c1ccccc1`, for which the activity change, negative = inhibition is inactive: 0.312%. With `COC(=O)C(=O)/C=C(\O)c1ccc(C)cc1` the figure was inactive: -10.1%; with `CSC(=NC#N)N1CCN(C(=NC#N)SC)CC1`, inactive: 0.746%; with `COc1ccc(C2(C(=O)Nc3ccc(OC)cc3OC)CCCC2)cc1`, inactive: -3.52%. The value for `Cc1ccc(NC(=O)C2CCN(S(=O)(=O)c3cccc(C(F)(F)F)c3)CC2)nc1` was inactive: -0.166%; that for `CC(C#N)(NC(=O)CN1CCN(S(=O)(=O)c2ccccc2C#N)CC1)C1CC1` (stereo not given) was inactive: 5.77%; that for `COCCN(CCOC)Cc1c(O)ccc2c1O/C(=C\c1ccco1)C2=O` was inactive: -1.22%. Take `O=C(CN1CCOCC1)NNC(=S)Nc1ccccc1`: the activity change, negative = inhibition is inactive: 0%. The value for `CCOC(=O)N1CCN(C(=O)COC(=O)c2cccc(S(C)(=O)=O)c2)CC1` was inactive: 4.09%.

For the molecule `COc1cccc(-n2nc3c(=S)[nH]nc(C)c3c2C)c1`, the activity change, negative = inhibition is inactive: -1.09%. With `Cc1ccc(CNC(=O)c2sc3nc(-c4ccc(F)cc4)ccc3c2N)cc1` the figure was inactive: -12%.

Source of the values: PubChem BioAssay AID651803 (National Center for Advancing Translational Sciences (NCATS), 2012).
